## Percent effect of library compounds

Chains of the proteins cited; added tags and fusions are not shown.
UniProt P9WFT3, whole entry: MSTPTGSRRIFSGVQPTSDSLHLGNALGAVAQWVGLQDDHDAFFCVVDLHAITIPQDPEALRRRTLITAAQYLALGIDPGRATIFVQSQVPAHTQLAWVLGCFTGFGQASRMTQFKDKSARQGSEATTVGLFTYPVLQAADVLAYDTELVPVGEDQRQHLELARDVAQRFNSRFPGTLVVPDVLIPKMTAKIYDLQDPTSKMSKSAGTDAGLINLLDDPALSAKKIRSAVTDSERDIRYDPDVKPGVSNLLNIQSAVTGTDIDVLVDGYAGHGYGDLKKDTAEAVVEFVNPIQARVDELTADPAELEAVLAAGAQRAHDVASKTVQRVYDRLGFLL

Values are the deposited “Percent Effect”, in %.
The record does not define 0% and 100%; most values in the screen are far below 50% and negative numbers occur (in some assays of this library far below -100).
The compounds are a random part of those screened.
Two or more numbers in one place are separate tests of the same structure; such repeats can differ widely.
A dash means the value is not listed here; it may have been measured.

A: 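Tryptophan-tRNA ligase, Mycobacterium tuberculosis (UniProt P9WFT3). Enzyme assay of tryptophanyl-tRNA synthetase; the read-out is not stated. Tested at 10 µM. Higher most likely means stronger inhibition; the record gives no direction and few retests gave an IC50. Of about 65,000 compounds tested this way, about 64 (0.098%) reached 50% or more in at least one test.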
B: 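Cell assay of Leishmania donovani living inside macrophages; the read-out is not stated. Compounds at 30 µM. Higher reads as stronger inhibition (inferred: compounds with an IC50 in retests scored well above the rest). Size under these conditions: about 69,000 compounds, about 1,000 of them at 50% or above in at least one test.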

compound | A | B
O=C(O)C(F)(F)F.[H][C@]12CCNCC[C@@]1([H])S(=O)(=O)N(CCc1cccc(OC)c1)C2 | - | -22% & -19.54%
CC(NC(=O)NCCNc1cnccn1)c1cccs1 (configuration not stated) | -1.679% | 42.83%
CCN(Cc1cnn(CC)c1)C(=O)Cn1c(=O)c(C)nc2ccccc21 | -2.408% | 42.97%
c1ccc(Oc2ccc(CNCC3CNc4ccnn4C3)cn2)cc1 (configuration not stated) | -0.9737% | 30.81%
CN(C)CCN1CCOCC2(CCCN(C(=O)c3ccoc3)C2)C1.O=C(O)C(F)(F)F.O=C(O)C(F)(F)F (configuration not stated) | - | 9.003%
Cc1csc(N(C)C(=O)C2CC(=O)N(CCc3ccccc3)C2)n1 (configuration not stated) | 5.706% | 12.86%
CC1(C)CN=C(N2CCN(CC3CCCO3)CC2)S1 (configuration not stated) | -4.405% | 1.194%
CC(C)(C)n1cc(CNC2CCN(C(=O)c3ccncc3)CC2)cn1 | -2.523% | 12.87%
COc1ccc(CC(=O)N2CCc3nc(C(=O)N(C)C)sc3CC2)cc1 | -1.618% | 3.602%
Cc1ccc(-c2cc(C3CCNCC3)nc(C)n2)cc1 | 0.1447% | -
CSC(C)Cc1c(-c2ccccc2)ncn1CCCNc1cccnc1 (configuration not stated) | -0.5045% | 10.48%
O=C(NCC1CCS(=O)(=O)C1)c1ccc2cccc(Cl)c2n1 (configuration not stated) | -2.528% | 33.76%
O=C(c1cc(=O)c(OCc2ccccc2)co1)N1CCSCC1 | 1.431% | -0.7556%
CCOCCn1c(=O)[nH]c2cc(C(=O)N(C)Cc3ccno3)ccc21 | -4.122% | 18.76%
CC(C)CN1C(=O)CO[C@@H]2CN(C(=O)N3CCOCC3)C[C@H]21 | 0.07048% | -
NC(=O)CC1CCCCN1C(=O)c1ccc2cc[nH]c2c1 (configuration not stated) | 5.433% | 20.31%
NC(=O)C1CCN(C(=O)CCn2c(C(F)(F)F)cc3cccnc32)CC1 | -2.957% | -0.493% & 3.036%
O=C(NS(=O)(=O)c1cc(Cl)sc1Cl)c1cccc2c1OCCO2 | 0.3564% | 3.759%
COc1ccc(CNC2CCCc3nc(N(C)C)ncc32)c(OC)c1 (configuration not stated) | -0.7831% | 29.14%
CC(C)(C(=O)NCc1n[nH]c(=O)[nH]1)c1ccc(F)cc1 | -3.179% | 17.25%
CCc1nc(C2CCCN2CC(=O)N2CCCc3ccccc32)no1 (configuration not stated) | -1.004% | -1.851%
O=C(CC1CC1)N1CCC2(CC(=O)N(c3cccc(F)c3)C2)C1 (configuration not stated) | -1.614% | 7.403%
Cc1ccc(CN2CCCC2(C(N)=O)c2cnccn2)c(C)c1 (configuration not stated) | - | 5.951% & -4.97%
Cc1cnc(C(=O)NCC2Cc3ccccc3O2)cn1 (configuration not stated) | -1.737% | 13.54%
CC(C)c1ncc2c(n1)CN(CC(=O)Nc1ccncc1)CC2 | -5.356% | 13.53%
COCc1ccc(CNC(=O)C2=NN(c3ccccc3)C(=O)CN2)cc1 | 0% | 41.01%
NC(=O)CN(Cc1ncc(-c2ccc(Cl)cc2)o1)C1CCCC1 | -5.828% | -11.26%
Cc1cc(OCC(=O)N2CCCC(c3noc(C)n3)C2)no1 (configuration not stated) | -4.983% | -29.16%
CC(NC(=O)NCCCn1cccn1)c1ccccn1 (configuration not stated) | 0.2172% | 11.56%
CC(C)c1noc(C(C)N2CCN(Cc3noc(C(C)(C)C)n3)CC2)n1 (configuration not stated) | -2.896% | 14.79%
Cc1cnn(CC2CN(Cc3nc(C)no3)CCO2)c1 (configuration not stated) | -2.542% | 7.397%
Cl.[H][C@]12CCCN[C@@]1([H])CN(C(=O)C(C)C)C2 | - | -2.864%
CNC(=O)[C@H]1C[C@@H]2CN(S(=O)(=O)c3cccc(F)c3)C[C@@H]2N1C | -0.8137% | -
COC(=O)c1ccc(N2CCN(Cc3csc(C)n3)CC2)nn1 | -5.718% | 5.691%
CCOc1ccc(CC(CNC(=O)c2ccoc2)C(N)=O)cc1 (configuration not stated) | 4.613% | 15.95%
c1cnc(N2CC3(CCN(Cc4ccncc4)C3)C2)nc1 | 1.146% | -
O=C(CCc1cc2n(n1)CCCNC2)NCCCSC1CCCCC1 | -1.22% | 31.25%
O=C(O)C(F)(F)F.[H][C@@]12CN(Cc3ccco3)C[C@]1([H])C(=O)N(c1cncnc1)C2 | - | 12.24%
Cc1nc(C)n(CC2CCCN(CCNC(=O)OC(C)(C)C)C2)n1 (configuration not stated) | -2.58% | 4.715%
CCN(CC)[C@@H]1CN(C(=O)c2ccnnc2)[C@@H]2CCCO[C@H]12 | -1.841% | -
Cc1cc(C(=O)N2CCC3(C2)CN(c2cccnc2)C(=O)CN3C)[nH]n1.O=C(O)C(F)(F)F.O=C(O)C(F)(F)F (configuration not stated) | - | -4.752%
NC(=O)CC1CCCCN1C(=O)Cc1cccc(Br)c1 (configuration not stated) | 1.349% | 5.06%
[H][C@@]12CN(C(=O)c3cscn3)C[C@@]1([H])N(CC1CCCC1)C(=O)CO2 | - | 3.478%
COCc1nccc(C2CCCN(Cc3ccc(C#N)cc3)C2)n1 (configuration not stated) | -3.631% | -6.942%

The values are deposited in ChEMBL (CHEMBL3988442, “University of Dundee, Small-Polar-MMV Screening Library” (2021)).